{"source": "PubChem BioAssay AID602196 (INSERM, 2012)", "aim": "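Genes whose knock-down alters cisplatin killing of lung cancer cells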", "system": "human A549 lung cancer cells", "knock-down reagent": "siRNA pair against human genes", "timing": "48 h transfection before cisplatin; time from cisplatin to read-out not stated", "conditions": "cisplatin at a dose killing half of control-siRNA cells; exact dose and duration not given", "measurement": "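Shift in cisplatin death relative to control siRNA, from -50 (all cells die) to +50 (no cells die); siRNAs harmful on their own scored 0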", "scale": "two-siRNA summed score (-2 to +2): higher = both siRNAs protect from cisplatin killing; -2 means both sensitise", "rule for the call": "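siRNAs harmful alone (LDH or WST-1) get 0; others get +1 for less and -1 for more cisplatin killing; genes are active when the two siRNAs give the same sign, summing to ±2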", "calls": "active = both siRNAs shift cisplatin killing the same way; inactive = no consistent shift, or siRNA harmful alone", "note": "Shown is an unselected part of about 23,000 deposited reagents. In the full data, 455 (2%) are marked active. 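Active includes both protection and sensitisation; some change values fall well beyond the stated -50 to +50 range.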 Unmarked entries are inactive. Not all columns of the deposit are shown. No sequences are given here. Not given: the amount of reagent."}
{"gene":"USP41P (ubiquitin specific peptidase 41, pseudogene)","two-siRNA summed score (-2 to +2)":-1}
{"gene":"LOC152877","two-siRNA summed score (-2 to +2)":0}
{"gene":"CRYBA2 (crystallin beta A2)","two-siRNA summed score (-2 to +2)":-1}
{"gene":"PAK6 (p21 (RAC1) activated kinase 6)","two-siRNA summed score (-2 to +2)":1}
{"gene":"OR10H2 (olfactory receptor family 10 subfamily H member 2)","two-siRNA summed score (-2 to +2)":0}
{"gene":"PHACTR2-AS1 (PHACTR2 antisense RNA 1)","two-siRNA summed score (-2 to +2)":0}
{"gene":"CDC123 (cell division cycle 123)","two-siRNA summed score (-2 to +2)":-1}
{"gene":"MTFR1 (mitochondrial fission regulator 1)","two-siRNA summed score (-2 to +2)":1}
{"gene":"GBP6 (guanylate binding protein family member 6)","two-siRNA summed score (-2 to +2)":0}
{"gene":"PRKD2 (protein kinase D2)","two-siRNA summed score (-2 to +2)":-1}
{"gene":"HDAC7 (histone deacetylase 7)","two-siRNA summed score (-2 to +2)":0}
{"gene":"ELF3 (E74 like ETS transcription factor 3)","two-siRNA summed score (-2 to +2)":-1}

Part of the list above, reformatted:
GBP6 (guanylate binding protein family member 6)
- two-siRNA summed score (-2 to +2): 0

PRKD2 (protein kinase D2)
- two-siRNA summed score (-2 to +2): -1
